PubChem BioAssay AID686943, Drosophila RNAi Screening Center | 2013
The deposit covers about 23,000 reagents; below is an unselected part of those with a known target gene and a result. 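Extra replicates exist only for a retested subset of genes; insulin dose and duration not given; both raised and lowered dpERK matter.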 The numbers tell different reagents against one gene apart. Names joined by + are all predicted targets of the reagent. The record does not give: the amount of reagent, the time to read-out.

Screen: 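Knockdowns that increase or decrease active ERK after insulin receptor stimulation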 (primary screen)
System: Drosophila S2R+ haemocyte-like cells expressing YFP-tagged ERK (Rolled)
Knock-down reagent: long dsRNA against Drosophila genes
Treatment: insulin stimulation versus unstimulated cells; dose and duration not given
Measured: 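Per-plate z-scores of phospho-ERK immunostaining normalised to YFP-tagged ERK, measured with and without insulin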
Scale: replicate 1, z-score of dpERK with insulin and replicate 2, z-score of dpERK with insulin: higher = more active ERK per ERK-YFP after insulin; replicate 1, z-score of dpERK under basal conditions: higher = more basal active ERK per ERK-YFP; replicate 1, z-score of ERK-YFP with insulin: higher = more YFP-tagged ERK signal

target gene | dsRNA no. | replicate 1, z-score of dpERK with insulin | replicate 2, z-score of dpERK with insulin | replicate 1, z-score of dpERK under basal conditions | replicate 1, z-score of ERK-YFP with insulin
CG4650 | 1 | 1.22 | -0.26 | 0.39 | 0.03
CG33232 (retired record) | 1 | 0.77 | 0.07 | 0.42 | 0.52
CG33232 (retired record) | 2 | 1.38 | 0.79 | 0.27 | 0.48
mRpS18A (mitochondrial ribosomal protein S18A) | 1 | -0.76 | -0.1 | -1.18 | 1.47
CG6324 | 1 | -0.05 | -0.07 | -0.62 | -0.14
Best4 (Bestrophin 4) | 1 | -0.37 | 0.41 | -0.71 | 0.42
Usp5 (Ubiquitin specific protease 5) | 1 | -0.8 | -0.52 | 0.09 | 1.05
CG11403 | 1 | -0.72 | 3.47 | -0.33 | 0.89
asRNA:CR30267 + CG42260 | 1 | -0.24 | -0.04 | 0.08 | 1.91
garz (gartenzwerg) | 1 | 0.1 | -0.23 | -1.06 | 0
GstE12 (Glutathione S transferase E12) | 1 | -1.07 | 1.01 | 1.02 | 1.29
scpr-A + scpr-C | 1 | 0.28 | 0.89 | 1.05 | -0.3
MBD-R2 | 1 | -1.19 | -1.54 | -1.4 | 2.51
lncRNA:mimi (mimi) | 1 | 0.87 | -0.28 | -0.44 | 0.25
CG7653 | 1 | -0.07 | 0.11 | 0.03 | -0.11

Continued (3 carried over from the part before).
target gene | dsRNA no. | replicate 1, z-score of dpERK with insulin | replicate 2, z-score of dpERK with insulin | replicate 1, z-score of dpERK under basal conditions | replicate 1, z-score of ERK-YFP with insulin
MBD-R2 | 1 | -1.19 | -1.54 | -1.4 | 2.51
lncRNA:mimi (mimi) | 1 | 0.87 | -0.28 | -0.44 | 0.25
CG7653 | 1 | -0.07 | 0.11 | 0.03 | -0.11
Cpr51A (Cuticular protein 51A) | 1 | 0.37 | 0.77 | -0.2 | 0.31
CG13871 | 1 | -0.75 | -1.14 | 0.24 | -0.39
Rbp1 (RNA-binding protein 1) | 1 | 0.38 | 0.55 | 0.64 | -0.48
Npc2a (Niemann-Pick type C-2a) | 1 | 0.22 | 0.42 | 0.37 | 0.28
cos (costa) | 1 | -0.1 | -0.31 | -1.12 | 0.02
CG4382 | 1 | 1.02 | -0.26 | -0.41 | -1.03
Mdh1 (Malate dehydrogenase 1) | 1 | 0.78 | 0.02 | 0.71 | -1.03
Ntmt (N-terminal methyltransferase) | 1 | 0.67 | 0.28 | 0.23 | 1.14
